Laboratory results from patent publication US12421279B2, “Cyclic peptide antiviral agents and methods using same” (priority 2016, dated 2025).
Not every detail of the peptide structures is certain; ends, links or a residue may be inferred. At least one compound was matched to its structure with a doubt left. *1 amine or outer side, *2 acyl side, *3 side chain or, on linkers, in order; H or OH if unused. Where a SMILES comes first, the peptide text is derived from it. Bridges are numbered along the chain shown (N, C = ends). [ ]: non-standard residue; d: D form. X9 = CCc1ccc(-c2cn([C@H]3C[C@@H](C(=O)[*:2])N([*:1])C3)nn2)cc1; X3 = Cc1ccccc1Cc1cn([C@H]2C[C@@H](C(=O)[*:2])N([*:1])C2)nn1; Bta = N[C@@H](Cc1csc2ccccc12)C(=O)O; Chg = N[C@H](C(=O)O)C1CCCCC1; Dab = NCC[C@H](N)C(=O)O

System: HIV-1Bal.01

| SMILES | fold lower potency compared to 24 (infection inhibition) | HIV-1 infection inhibition activity in words |
| --- | --- | --- |
| CC[C@H](C)[C@@H]1NC(=O)[C@H](CC(N)=O)NC(=O)[C@@H](N)CC(=O)NCCCC[C@@H](C(N)=O)NC(=O)[C@H](Cc2c[nH]c3ccccc23)NC(=O)[C@@H]2C[C@H](n3cc(Cc4ccccc4C)nn3)CN2C1=O [cPT 25] (H-DNI[X3]WK-NH2; lactam 1-6 (inferred); N-terminus and C-terminus assumed) | about 28 fold | – |
| CCc1ccc(-c2cn([C@H]3C[C@H]4C(=O)N[C@@H](Cc5csc6ccccc56)C(=O)N[C@H](C(N)=O)CCCCNC(=O)C[C@H](N)C(=O)N[C@@H](CCN)C(=O)N[C@@H](C5CCCCC5)C(=O)N4C3)nn2)cc1 [compound 35] (H-D[Dab][Chg][X9][Bta]K-NH2; lactam 1-6) | – | inactive |
